According to patent US20100297664A1:
Results are given in words; binding and its absence hold for the method and conditions named. A result given as binding can be weak or reduced; the word gives no strength.

Target: full-length mortalin with an His tag (recombinant, expressed in Escherichia coli)
Assay: BIACORE, His-tagged mortalin on NTA chip

B1: anti-mortalin monoclonal antibody 52-3 (antibody, V domains shown)
VH: QVQLQQPGAELVKPGASVKLSCKASGYTFTSYWMHWVKQRPGQGLEWIGEINPSNGRTNYNEKFKSKATLTVDKSSSTAYMQLSSLTSEDSAVYYCARSRYYGSCYFDYWGQGTTLTVSS
VL: KIVMTQAAFSNPVTLGTSASISCRSSKSLLYSNGITYLYWYLQKPGQSPQLLIYQMSNLASGVPDRFSSSGSGTDFTLRISRVEAEDVGVYYCAQNLELPWTFGGGTKLEIK
With B1 the binding was “binds”.
